Binding screen against folded nucleic acids

Data from the ROBIN nucleic acid binder screens, doi:10.1002/anie.202211358.

Targets, with sequences 5′ to 3′:
T1: TPP riboswitch RNA three-way junction, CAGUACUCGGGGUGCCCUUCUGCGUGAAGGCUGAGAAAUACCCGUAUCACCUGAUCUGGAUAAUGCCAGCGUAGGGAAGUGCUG. Hit rate about 0.7% of about 24,000 compounds.
T2: SAM-II riboswitch RNA pseudoknot, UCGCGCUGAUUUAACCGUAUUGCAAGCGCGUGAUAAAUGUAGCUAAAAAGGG. Hit rate about 1% of about 21,000 compounds.
T3: PreQ1 riboswitch RNA pseudoknot, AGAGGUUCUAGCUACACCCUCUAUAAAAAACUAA. From B. subtilis. Hit rate about 0.7% of about 24,000 compounds.

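Each compound is printed as two spots on a slide made to bind it covalently, so it has no test concentration; the read-out is fluorescence of the bound, labelled oligonucleotide. The data file lists only calls. An earlier report of the laboratory on the PreQ1, TPP and SAM-II riboswitches (doi:10.1038/s41467-019-09493-3) used 1 µM RNA for 2 h and required a mean Z-score above 3 (spot signal-to-noise against the whole library), a score well above that on a control array, and duplicate spots agreeing (coefficient of variation under 100); it then also set aside compounds that hit other targets, which this list keeps. The cut-offs behind this list may differ. These are primary screening calls, not affinities; a compound without a hit may have attached poorly or may still bind in solution.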 Key: hit = hit, none = tested without a hit. This is an unselected part of the compounds tested. A target missing from an entry has no call listed here.

{"smiles": "Cc1ccc(S(=O)(=O)Nc2ccccc2CNc2ccc(C)cc2C)cc1", "T1": "none", "T2": "none", "T3": "none"}
{"smiles": "CCc1nnc2c(Nc3cccc(Cl)c3)nc3ccccc3n12", "T1": "none", "T2": "none", "T3": "none"}
{"smiles": "CCOC(=O)c1sc(=S)n(CC)c1N", "T1": "none", "T2": "none", "T3": "none"}
{"smiles": "c1cn2c(NC3CCCCC3)c(-c3ccc(N4CCOCC4)cc3)nc2cn1", "T1": "none", "T2": "none", "T3": "none"}
{"smiles": "CCOC(=O)C1(CC2CC2)CCNCC1", "T1": "none", "T2": "none", "T3": "none"}
{"smiles": "COc1ccccc1-n1cc(-c2ccccc2)c2c(NCCN3CCOCC3)ncnc21", "T1": "none", "T3": "none"}
{"smiles": "COc1ccc(C2CC(=O)Nc3nc(N)ccc32)c(OC)c1OC", "stereo": "centres undefined", "T1": "none", "T2": "none", "T3": "none"}
{"smiles": "O[C@]12CCNC[C@H]1CN(c1ccc(CN3CCOCC3)cn1)CC2", "T1": "none", "T2": "none", "T3": "none"}
{"smiles": "Cc1ccn2c(F)c(C(=O)N3C[C@@H](N)C[C@H]3C(=O)NC(C)C)nc2c1", "T1": "none", "T2": "none", "T3": "none"}
{"smiles": "CC(C)C(Nc1ncnc2c1CCNC2)c1ccccn1", "stereo": "centres undefined", "T1": "none", "T2": "none", "T3": "none"}
{"smiles": "NC(=O)c1ncn([C@@H]2O[C@H](CO)[C@@H](O)[C@@H]2O)c1O", "T1": "none", "T2": "none", "T3": "none"}
{"smiles": "COc1ccc(CNc2cc(C)nc3cc(-c4ccccc4)nn23)cc1", "T1": "none", "T2": "none", "T3": "none"}
{"smiles": "Cc1cc(C)c2c(N)c(C(=O)Nc3cccc(Cl)c3C)sc2n1", "T1": "none", "T2": "none", "T3": "none"}
{"smiles": "CCN1CCN(c2nc3c(c(=O)[nH]c(=O)n3C)n2CC(O)COC(C)C)CC1", "stereo": "centres undefined", "T1": "none", "T2": "none", "T3": "none"}
{"smiles": "Cc1cc(N2CCC(NCCCn3cncn3)CC2)nc(-c2ccccc2)n1", "T1": "none", "T2": "none", "T3": "none"}
{"smiles": "Nc1cc(N2CCCN(CCCc3ccccc3)CC2)nc(N)n1", "T1": "none", "T2": "hit", "T3": "none"}
{"smiles": "Cn1cc(CC(=O)N2C[C@H](CO)C[C@H](CN3CCCC3)C2)c2ccccc21", "T1": "none", "T2": "none", "T3": "none"}
{"smiles": "OCc1nc2ccccc2n1CC(O)Cn1ccc2ccccc21", "stereo": "centres undefined", "T1": "none", "T2": "none", "T3": "none"}
{"smiles": "CNc1nc(N2CC[C@@H](c3ccc4c(c3)OCO4)[C@H](O)C2)nc2c1CCC2", "T1": "none", "T2": "none", "T3": "none"}
{"smiles": "CCCn1nc(C2CCOCC2)nc1[C@H](O)C1CCCCC1", "T1": "none", "T2": "none", "T3": "none"}
{"smiles": "Cc1nc2ccccc2n1CC(O)COc1ccc(C(C)C)cc1", "stereo": "centres undefined", "T1": "none", "T3": "none"}
{"smiles": "Cn1cccc1C1Nc2ccccc2NC2=C1C(=O)CC(C)(C)C2", "stereo": "centres undefined", "T1": "none", "T2": "none", "T3": "none"}
{"smiles": "OC(COc1ccc(Cl)cc1)CN1CCN(c2cccc(Cl)c2)CC1", "stereo": "centres undefined", "T1": "none", "T2": "none", "T3": "none"}
{"smiles": "COc1cc(OC)c(OC)cc1C=O", "T1": "none", "T2": "none", "T3": "none"}
{"smiles": "c1cc(CNCc2ccc3c(c2)OCO3)ccn1", "T1": "none", "T2": "none", "T3": "none"}
{"smiles": "N[C@H]1CN(C(=O)CCCn2ccnc2)C[C@@H]1C1CC1", "T1": "none", "T2": "none", "T3": "none"}
{"smiles": "O=C1C=CC[C@@H]2[C@H]3CCCN4CCC[C@@H](CN12)[C@@H]34", "T1": "none", "T2": "none", "T3": "none"}
{"smiles": "NS(=O)(=O)c1ccc(CCNC2=CC(=O)OC23CCCCC3)cc1", "T1": "none", "T2": "none", "T3": "none"}
{"smiles": "CC(=O)c1cccc(NC(=O)c2sc3nc4c(cc3c2N)CCCCC4)c1", "T1": "none", "T2": "none", "T3": "none"}
{"smiles": "Nc1nc2ccccc2cc1C(=O)Nc1cccc(Cl)c1", "T1": "none", "T2": "none", "T3": "none"}
{"smiles": "NCCC1CN(c2nc(-c3ccccc3)nc3c2CCNC3)CCO1", "stereo": "centres undefined", "T1": "none", "T2": "none", "T3": "none"}
{"smiles": "COc1ccc(-c2nc(-c3ccccc3N)n[nH]2)cc1", "T1": "none", "T2": "none", "T3": "none"}
{"smiles": "CC(C)C[C@@]1(CO)N[C@H](c2cc(CN(C)C)cs2)[C@@H]2CN(C)C[C@@H]21", "T1": "none", "T2": "none", "T3": "none"}
{"smiles": "CCCc1nc2c(C)cc(-c3nc4ccccc4n3C)cc2n1Cc1ccc(-c2ccccc2C(=O)O)cc1", "T1": "none", "T2": "none", "T3": "none"}
{"smiles": "O=S1(=O)N=C(Nc2ccccn2)c2ccccc21", "T1": "none", "T2": "none", "T3": "none"}
{"smiles": "Nc1nc(NCc2ccncc2)c2cn[nH]c2n1", "T1": "none", "T2": "none", "T3": "none"}
{"smiles": "CCn1c(CC2CCNCC2)nn(Cc2cccc3ccccc23)c1=O", "T1": "none", "T2": "none", "T3": "none"}
{"smiles": "Cc1ccccc1C(=O)N1CCN(C(=O)c2nonc2N)CC1", "T1": "none", "T3": "none"}
{"smiles": "Cc1ccc2c(CNC3CCCCCC3)c(C(=O)O)n(C)c2c1", "T1": "none", "T3": "none"}
{"smiles": "CO[C@H]1CNC[C@@H]1NC(=O)c1cc(C)nc2c(C)cc(C)cc12", "T1": "none", "T2": "none", "T3": "none"}

Some entries from above, unchanged:

* COc1ccc(-c2nc(-c3ccccc3N)n[nH]2)cc1 : T1: none; T2: none; T3: none
* CC(=O)c1cccc(NC(=O)c2sc3nc4c(cc3c2N)CCCCC4)c1 : T1: none; T2: none; T3: none
* O[C@]12CCNC[C@H]1CN(c1ccc(CN3CCOCC3)cn1)CC2 : T1: none; T2: none; T3: none